According to paper PMC12661054, “The CIP2A-TOPBP1 axis facilitates mitotic DNA repair via MiDAS and MMEJ” (Nature Communications, 2025):
Results are given in words; binding and its absence hold for the method and conditions named. In cells and extracts the contact can be indirect. Here binding means that the protein was enriched with, or labelled near, the bait; the list need not be complete.

Chains of the proteins cited; added tags and fusions are not shown.
UniProt Q92547: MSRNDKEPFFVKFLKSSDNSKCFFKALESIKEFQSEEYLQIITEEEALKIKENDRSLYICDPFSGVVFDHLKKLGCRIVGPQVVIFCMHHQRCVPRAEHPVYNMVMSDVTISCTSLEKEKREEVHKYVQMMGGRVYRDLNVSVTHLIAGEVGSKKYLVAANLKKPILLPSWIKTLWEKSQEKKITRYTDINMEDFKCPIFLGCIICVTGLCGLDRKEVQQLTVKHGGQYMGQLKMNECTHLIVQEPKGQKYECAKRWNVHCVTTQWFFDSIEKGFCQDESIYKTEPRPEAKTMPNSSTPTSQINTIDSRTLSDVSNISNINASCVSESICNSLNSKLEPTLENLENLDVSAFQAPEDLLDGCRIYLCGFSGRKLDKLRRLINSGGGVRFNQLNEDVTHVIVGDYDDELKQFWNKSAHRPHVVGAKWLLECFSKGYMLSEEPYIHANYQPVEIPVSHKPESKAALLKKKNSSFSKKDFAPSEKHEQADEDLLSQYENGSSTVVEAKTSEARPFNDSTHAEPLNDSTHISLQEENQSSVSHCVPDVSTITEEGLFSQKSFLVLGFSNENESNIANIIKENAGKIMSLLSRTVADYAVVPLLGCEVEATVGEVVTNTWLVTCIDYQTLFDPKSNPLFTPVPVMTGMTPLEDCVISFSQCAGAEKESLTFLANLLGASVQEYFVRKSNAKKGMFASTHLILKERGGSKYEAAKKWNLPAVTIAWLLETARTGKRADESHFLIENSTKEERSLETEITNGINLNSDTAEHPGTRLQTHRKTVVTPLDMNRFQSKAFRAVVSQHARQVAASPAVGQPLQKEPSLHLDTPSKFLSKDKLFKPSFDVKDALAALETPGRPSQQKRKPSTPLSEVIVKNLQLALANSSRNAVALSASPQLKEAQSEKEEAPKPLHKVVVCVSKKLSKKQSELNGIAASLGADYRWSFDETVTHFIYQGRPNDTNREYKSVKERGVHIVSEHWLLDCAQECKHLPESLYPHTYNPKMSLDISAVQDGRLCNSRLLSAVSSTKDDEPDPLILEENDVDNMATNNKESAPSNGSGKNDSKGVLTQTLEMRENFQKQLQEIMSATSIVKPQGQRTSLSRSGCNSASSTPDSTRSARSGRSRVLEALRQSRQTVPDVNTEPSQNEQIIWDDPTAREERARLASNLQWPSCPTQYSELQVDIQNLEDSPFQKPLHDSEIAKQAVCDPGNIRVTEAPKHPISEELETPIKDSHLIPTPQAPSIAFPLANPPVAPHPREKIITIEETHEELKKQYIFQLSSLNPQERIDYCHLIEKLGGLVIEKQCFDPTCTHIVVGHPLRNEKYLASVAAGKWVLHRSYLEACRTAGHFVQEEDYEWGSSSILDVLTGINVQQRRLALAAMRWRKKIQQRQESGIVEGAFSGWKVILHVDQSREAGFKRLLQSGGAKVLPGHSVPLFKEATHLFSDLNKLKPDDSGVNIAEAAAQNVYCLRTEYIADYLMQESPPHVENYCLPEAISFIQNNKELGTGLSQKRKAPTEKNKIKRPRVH

B1: EME1 (endogenous) (protein, UniProt Q96AY2 1-570)
chain: MALKKSSPSLDSGDSDSEELPTFAFLKKEPSSTKRRQPEREEKIVVVDISDCEASCPPAPELFSPPVPEIAETVTQTQPVRLLSSESEDEEEFIPLAQRLTCKFLTHKQLSPEDSSSPVKSVLDHQNNEGASCDWKKPFPKIPEVPLHDTPERSAADNKDLILDPCCQLPAYLSTCPGQSSSLAVTKTNSDILPPQKKTKPSQKVQGRGSHGCRQQRQARQKESTLRRQERKNAALVTRMKAQRPEECLKHIIVVLDPVLLQMEGGGQLLGALQTMECRCVIEAQAVPCSVTWRRRAGPSEDREDWVEEPTVLVLLRAEAFVSMIDNGKQGSLDSTMKGKETLQGFVTDITAKTAGKALSLVIVDQEKCFSAQNPPRRGKQGANKQTKKQQQRQPEASIGSMVSRVDAEEALVDLQLHTEAQAQIVQSWKELADFTCAFTKAVAEAPFKKLRDETTFSFCLESDWAGGVKVDLAGRGLALVWRRQIQQLNRVSLEMASAVVNAYPSPQLLVQAYQQCFSDKERQNLLADIQVRRGEGVTSTSRRIGPELSRRIYLQMTTLQPHLSLDSAD
B2: ERCC4/XPF (endogenous) (protein, UniProt Q92889 1-916)
chain: MESGQPARRIAMAPLLEYERQLVLELLDTDGLVVCARGLGADRLLYHFLQLHCHPACLVLVLNTQPAEEEYFINQLKIEGVEHLPRRVTNEITSNSRYEVYTQGGVIFATSRILVVDFLTDRIPSDLITGILVYRAHRIIESCQEAFILRLFRQKNKRGFIKAFTDNAVAFDTGFCHVERVMRNLFVRKLYLWPRFHVAVNSFLEQHKPEVVEIHVSMTPTMLAIQTAILDILNACLKELKCHNPSLEVEDLSLENAIGKPFDKTIRHYLDPLWHQLGAKTKSLVQDLKILRTLLQYLSQYDCVTFLNLLESLRATEKAFGQNSGWLFLDSSTSMFINARARVYHLPDAKMSKKEKISEKMEIKEGEETKKELVLESNPKWEALTEVLKEIEAENKESEALGGPGQVLICASDDRTCSQLRDYITLGAEAFLLRLYRKTFEKDSKAEEVWMKFRKEDSSKRIRKSHKRPKDPQNKERASTKERTLKKKKRKLTLTQMVGKPEELEEEGDVEEGYRREISSSPESCPEEIKHEEFDVNLSSDAAFGILKEPLTIIHPLLGCSDPYALTRVLHEVEPRYVVLYDAELTFVRQLEIYRASRPGKPLRVYFLIYGGSTEEQRYLTALRKEKEAFEKLIREKASMVVPEEREGRDETNLDLVRGTASADVSTDTRKAGGQEQNGTQQSIVVDMREFRSELPSLIHRRGIDIEPVTLEVGDYILTPEMCVERKSISDLIGSLNNGRLYSQCISMSRYYKRPVLLIEFDPSKPFSLTSRGALFQEISSNDISSKLTLLTLHFPRLRILWCPSPHATAELFEELKQSKPQPDAATALAITADSETLPESEKYNPGPQDFLLKMPGVNAKNCRSLMHHVKNIAELAALSQDELTSILGNAANAKQLYDFIHTSFAEVVSKGKGKK
B3: ERCC1 (endogenous) (protein, UniProt P07992 1-297)
chain: MDPGKDKEGVPQPSGPPARKKFVIPLDEDEVPPGVAKPLFRSTQSLPTVDTSAQAAPQTYAEYAISQPLEGAGATCPTGSEPLAGETPNQALKPGAKSNSIIVSPRQRGNPVLKFVRNVPWEFGDVIPDYVLGQSTCALFLSLRYHNLHPDYIHGRLQSLGKNFALRVLLVQVDVKDPQQALKELAKMCILADCTLILAWSPEEAGRYLETYKAYEQKPADLLMEKLEQDFVSRVTECLTTVKSVNKTDSQTLLTTFGSLEQLIAASREDLALCPGLGPQKARRLFDVLHEPFLKVP
B4: MUS81 (endogenous) (protein, UniProt Q96NY9 1-551)
chain: MAAPVRLGRKRPLPACPNPLFVRWLTEWRDEATRSRRRTRFVFQKALRSLRRYPLPLRSGKEAKILQHFGDGLCRMLDERLQRHRTSGGDHAPDSPSGENSPAPQGRLAEVQDSSMPVPAQPKAGGSGSYWPARHSGARVILLVLYREHLNPNGHHFLTKEELLQRCAQKSPRVAPGSARPWPALRSLLHRNLVLRTHQPARYSLTPEGLELAQKLAESEGLSLLNVGIGPKEPPGEETAVPGAASAELASEAGVQQQPLELRPGEYRVLLCVDIGETRGGGHRPELLRELQRLHVTHTVRKLHVGDFVWVAQETNPRDPANPGELVLDHIVERKRLDDLCSSIIDGRFREQKFRLKRCGLERRVYLVEEHGSVHNLSLPESTLLQAVTNTQVIDGFFVKRTADIKESAAYLALLTRGLQRLYQGHTLRSRPWGTPGNPESGAMTSPNPLCSLLTFSDFNAGAIKNKAQSVREVFARQLMQVRGVSGEKAAALVDRYSTPASLLAAYDACATPKEQETLLSTIKCGRLQRNLGPALSRTLSQLYCSYGPLT

target: TOPBP1 (endogenous) (human (endogenous in HEK293TN)) (UniProt Q92547); test: affinity purification with mass spectrometry; endogenous TOPBP1 precipitated with anti-TOPBP1 (A300-111A) on Dynabeads protein G from benzonase-treated HEK293TN lysates (asynchronous, S phase, M phase); IgG beads as control; label-free DIA LC-MS

binding, binds:
B1, B2, B3, B4

target: TOPBP1 (endogenous) (human (endogenous in HEK293TN)) (UniProt Q92547); test: affinity purification with mass spectrometry; endogenous TOPBP1 Co-IPs from asynchronous and M phase synchronised HEK293TN cells; TMT isobaric labelling, quantitative LC-MS

binding, binds:
B1, B2
